Reference: the supplement of paper PMC9744312
Counter-ions that a name gives are not always drawn. This is one part of the list. Single values of this set are uncertain.

system: Peyronie's disease tunica albuginea primary fibroblasts; assay: cell viability (DRAQ5 nuclear stain) relative to TGF-beta1-only control; higher = more viable cells; settings: 10 µM; TGF-beta1 10 ng/mL; 72 h

SMILES | cell viability [%]
COC(=O)C1=C(C)NC(C)=C(C(=O)OC(C)C)C1c1cccc2nonc12 (stereo not drawn) [Isradipine] | 92.4
CCOC(=O)Nc1ccc(NCc2ccc(F)cc2)nc1N [Flupirtine maleate] | 96
COCC(=O)Nc1c(I)c(C(=O)NCC(O)CO)c(I)c(C(=O)N(C)CC(O)CO)c1I (stereo not drawn) [Iopromide] | 90.6
CN1CCN(c2cc3c(cc2F)c(=O)c(C(=O)O)cn3-c2ccc(F)cc2)CC1 [Difloxacin HCl] | 85.8
O=C(O)CCCC[C@@H]1SC[C@@H]2NC(=O)N[C@@H]21 [Biotin (Vitamin B7)] | 99.7
CC(C)C(=O)Nc1ccc([N+](=O)[O-])c(C(F)(F)F)c1 [Flutamide] | 83.6
Cn1cnc([N+](=O)[O-])c1Sc1ncnc2[nH]cnc12 [Azathioprine] | 88.2
CC(=O)Oc1cc2c(s1)CCN(C(C(=O)C1CC1)c1ccccc1F)C2 (stereo not drawn) [Prasugrel Hydrochloride] | 71.1
CC(=O)Oc1cc2c(s1)CCN(C(C(=O)C1CC1)c1ccccc1F)C2 (stereo not drawn) [Prasugrel] | 95
C#C[C@]1(O)CC[C@H]2[C@@H]3CCC4=CCCC[C@@H]4[C@H]3C(=C)C[C@@]21CC [Desogestrel] | 72.4
CC(=O)OCC[N+](C)(C)C [Acetylcholine iodide] | 95.1
S=C(NCc1ccc2c(c1)OCO2)N1CCN(c2ncnc3c2oc2ccccc23)CC1 [Amuvatinib (MP-470)] | 92.7
OCCN1C[C@H](O)[C@@H](O)[C@H](O)[C@H]1CO [Miglitol] | 98.1
CC1=C(C/C=C(\C)CCC[C@H](C)CCC[C@H](C)CCCC(C)C)C(=O)c2ccccc2C1=O [Vitamin K1] | 52.1
Cc1cnc(C(=O)O)c[n+]1[O-] [Acipimox] | 93.2
Cc1cc(S(=O)(=O)O)c2c(C)ccc(C(C)C)cc1-2 [Sodium gualenate] | 86.3
O=C(O)C1(C(=O)O)CCC1.[NH2-].[NH2-].[Pt+2] [Carboplatin] | 92.7
Cc1cc(N2CCN([C@@H]3CN[C@H](C(=O)N4CCSC4)C3)CC2)n(-c2ccccc2)n1 [Teneligliptin hydrobromide] | 82.6
Nc1ccc(S(=O)(=O)Nc2cncc(Cl)n2)cc1 [Sulfalozine sodium] | 48.1
COc1ccc(CN2CCN(C(c3ccc(F)cc3)c3ccc(F)cc3)CC2)c(OC)c1OC [Lomerizine 2HCl] | 94.9
COc1ccc(C(=O)c2ccccc2O)c(O)c1 [2,2′-Dihydroxy-4-methoxybenzophenone] | 81.6
COCCc1ccc(OCC(O)CNC(C)C)cc1 (stereo not drawn) [Metoprolol succinate] | 99.2
COCCc1ccc(OCC(O)CNC(C)C)cc1 (stereo not drawn) [Metoprolol] | 81.9

Quoted from the listing.
S=C(NCc1ccc2c(c1)OCO2)N1CCN(c2ncnc3c2oc2ccccc23)CC1 [Amuvatinib (MP-470)] | cell viability [%]: 92.7
COc1ccc(CN2CCN(C(c3ccc(F)cc3)c3ccc(F)cc3)CC2)c(OC)c1OC [Lomerizine 2HCl] | cell viability [%]: 94.9
CC(=O)OCC[N+](C)(C)C [Acetylcholine iodide] | cell viability [%]: 95.1

The listing continues.

SMILES | cell viability [%]
COCCc1ccc(OCC(O)CNC(C)C)cc1 (stereo not drawn) [Metoprolol Tartrate] | 91.6
CCN1CCN(Cc2ccc(Nc3ncc(F)c(-c4cc(F)c5nc(C)n(C(C)C)c5c4)n3)nc2)CC1 | 91.6
CCN1CCN(Cc2ccc(Nc3ncc(F)c(-c4cc(F)c5nc(C)n(C(C)C)c5c4)n3)nc2)CC1 [Abemaciclib] | 84.1
Nc1nc2[nH]cc(CCc3ccc(C(=O)N[C@@H](CCC(=O)O)C(=O)O)cc3)c2c(=O)[nH]1 [Pemetrexed] | 96.6
Nc1nc2[nH]cc(CCc3ccc(C(=O)N[C@@H](CCC(=O)O)C(=O)O)cc3)c2c(=O)[nH]1 [Pemetrexed Disodium Hydrate] | 92.4
CC(C)[C@H](N)C(=O)OCC(CO)OCn1cnc2c(=O)[nH]c(N)nc21 (stereo partly drawn) [Valganciclovir HCl] | 89
CN1CCC[C@@H]1CCO[C@](C)(c1ccccc1)c1ccc(Cl)cc1 [Clemastine Fumarate] | 72.1
CCOc1ccc(NC(C)=O)cc1 [Phenacetin] | 74.4
NCCCCC(NC(=O)C1CCCN1C(=O)C1CSSCC(N)C(=O)NC(Cc2ccc(O)cc2)C(=O)NC(Cc2ccccc2)C(=O)NC(CCC(N)=O)C(=O)NC(CC(N)=O)C(=O)N1)C(=O)NCC(N)=O (stereo not drawn) [Lypressin Acetate] | 83
COc1cc2ncnc(Nc3ccc(F)c(Cl)c3)c2cc1OCCCN1CCOCC1 [Gefitinib (ZD1839)] | 86.6
COc1cc2ncnc(Nc3ccc(F)c(Cl)c3)c2cc1OCCCN1CCOCC1 [Gefitinib hydrochloride] | 59.2
CN1CCN(c2nc(C3=C(c4c[nH]c5ccccc45)C(=O)NC3=O)c3ccccc3n2)CC1 [Sotrastaurin] | 86.9
CC(C(=O)O)c1ccc(C(=O)c2cccs2)cc1 (stereo not drawn) [Suprofen] | 82.1
COC(=O)[C@]12CCC(C)(C)C[C@H]1[C@H]1C(=O)C=C3[C@@]4(C)C=C(C#N)C(=O)C(C)(C)[C@@H]4CC[C@@]3(C)[C@]1(C)CC2 [Bardoxolone Methyl] | 25.2
CCCCC[C@H](O)/C=C/[C@H]1[C@H](O)CC(=O)[C@@H]1CCCCCCC(=O)O [Alprostadil] | 89.7
CC[C@@H]([C@H](C)O)n1ncn(-c2ccc(N3CCN(c4ccc(OC[C@@H]5CO[C@@](Cn6cncn6)(c6ccc(F)cc6F)C5)cc4)CC3)cc2)c1=O [Posaconazole] | 78
O=C(O)c1ccccc1 [Benzoic Acid] | 94.6
CCN(CCCOc1ccc2c(Nc3cc(CC(=O)Nc4cccc(F)c4)[nH]n3)ncnc2c1)CCOP(=O)(O)O [Barasertib (AZD1152-HQPA)] | 65.4
NCc1ccc(S(N)(=O)=O)cc1 [Mafenide Acetate] | 89.8
NCc1ccc(S(N)(=O)=O)cc1 [Mafenide hydrochloride] | 94.8
CN[C@@H]1[C@H](O[C@H]2[C@H](O[C@H]3[C@H](O)[C@@H](O)[C@H](NC(=N)N)[C@@H](O)[C@@H]3NC(=N)N)O[C@@H](C)[C@]2(O)CO)O[C@@H](CO)[C@H](O)[C@H]1O [Dihydrostreptomycin sulfate] | 89
CC/C(=C(\c1ccccc1)c1ccc(OCCN(C)C)cc1)c1ccccc1 [Tamoxifen] | 97.6
CC/C(=C(\c1ccccc1)c1ccc(OCCN(C)C)cc1)c1ccccc1 [Tamoxifen Citrate] | 86.3

SMILES | cell viability [%]
CCc1oc2ccccc2c1C(=O)c1cc(Br)c(O)c(Br)c1 [Benzbromarone] | 85.4
C=C(c1ccc(C(=O)O)cc1)c1cc2c(cc1C)C(C)(C)CCC2(C)C [Bexarotene] | 92.3
CCOC(=O)[N-]c1c[n+](N2CCOCC2)no1 [Molsidomine] | 86.7
CC[N+](CC)(CC)CCOc1cccc(OCC[N+](CC)(CC)CC)c1OCC[N+](CC)(CC)CC [Gallamine Triethiodide] | 99.4
CC(C)(C)NCC(O)c1cc(O)cc(O)c1 (stereo not drawn) [Terbutaline Sulfate] | 95.2
CNCc1cc(-c2ccccc2F)n(S(=O)(=O)c2cccnc2)c1 [Vonoprazan Fumarate (TAK-438)] | 80.3
Cc1ccccc1C(OCCN(C)C)c1ccccc1 (stereo not drawn) [Orphenadrine Citrate] | 92.1
Cc1ccccc1C(OCCN(C)C)c1ccccc1 (stereo not drawn) [Orphenadrine Hydrochloride] | 94.6
O=C1C(O)=C([C@H]2CC[C@H](c3ccc(Cl)cc3)CC2)C(=O)c2ccccc21 [Atovaquone] | 92.2
O=C1CCc2ccc(OCCCCN3CCN(c4cccc(Cl)c4Cl)CC3)cc2N1 [Aripiprazole] | 87.9
CN(C)CCOC(c1ccc(Cl)cc1)c1ccccn1 (stereo not drawn) [CarbinoxaMine Maleate] | 108
NCCCC(N)(C(=O)O)C(F)F (stereo not drawn) [Eflornithine hydrochloride hydrate] | 94.5
COC(=O)C1=C(C)NC(C)=C(C(=O)OCC(C)C)C1c1ccccc1[N+](=O)[O-] (stereo not drawn) [Nisoldipine] | 100
Oc1cc(O)c(Cl)cn1 [Gimeracil] | 88.8
OC[C@H]1O[C@@H](c2ccc(Cl)c(Cc3ccc(O[C@H]4CCOC4)cc3)c2)[C@H](O)[C@@H](O)[C@@H]1O | 58.5
CCCC(=O)[O-].[Na+] [Sodium butyrate] | 86.9
C/C=C(/C)C(=O)O[C@H]1[C@H](OC(C)=O)[C@@]2(CO)C(CC1(C)C)C1=CCC3[C@@]4(C)CCC(O[C@@H]5O[C@H](C(=O)O)[C@@H](O[C@@H]6O[C@H](CO)[C@@H](O)[C@H](O)[C@H]6O)[C@H](O)[C@H]5O[C@@H]5O[C@H](CO)[C@@H](O)[C@H](O)[C@H]5O)[C@](C)(CO)C4CC[C@@]3(C)[C@]1(C)C[C@H]2O.C/C=C(\C)C(=O)O[C@H]1[C@H](OC(C)=O)[C@@]2(CO)C(CC1(C)C)C1=CCC3[C@@]4(C)CCC(O[C@@H]5O[C@H](C(=O)O)[C@@H](O[C@@H]6O[C@H](CO)[C@@H](O)[C@H](O)[C@H]6O)[C@H](O)[C@H]5O[C@@H]5O[C@H](CO)[C@@H](O)[C@H](O)[C@H]5O)[C@](C)(CO)C4CC[C@@]3(C)[C@]1(C)C[C@H]2O (stereo partly drawn) [Escin] | 114
O=C(O)COCCN1CCN([C@H](c2ccccc2)c2ccc(Cl)cc2)CC1 [Levocetirizine Dihydrochloride] | 88.2
Cc1cnc(C(=O)NCCc2ccc(S(=O)(=O)NC(=O)NC3CCCCC3)cc2)cn1 [Glipizide] | 97.8
COc1ccc2c(O[C@@H]3C[C@H]4C(=O)N[C@]5(C(=O)NS(=O)(=O)C6CC6)C[C@H]5/C=C\CCCCN(C)C(=O)[C@@H]4C3)cc(-c3nc(C(C)C)cs3)nc2c1C [Simeprevir] | 95.3
O=C1[C@H](CC[C@H](O)c2ccc(F)cc2)[C@@H](c2ccc(O)cc2)N1c1ccc(F)cc1 [Ezetimibe] | 89.8
Cc1ncc(COP(=O)(O)O)c(C=O)c1O [Pyridoxal phosphate] | 44.7
